Laboratory results reported in PubChem BioAssay AID651768 (National Center for Advancing Translational Sciences (NCATS), 2012).
In all, about 360,000 compounds went through this assay and about 1,700 (0.47%) were called active. The shares of active, inactive and inconclusive entries below differ from those in the screen. Calls come from the whole dose curve; as a rule, active = well fitted inhibition curve with a large enough effect; inconclusive = small, poorly fitted or top-dose-only effect; inactive = no such curve, though single readings can be large or run the other way. Where the call is inconclusive, the potency comes from a doubtful curve fit.

Chains of the proteins cited; added tags and fusions are not shown.
UniProt Q14191, whole entry, looked up: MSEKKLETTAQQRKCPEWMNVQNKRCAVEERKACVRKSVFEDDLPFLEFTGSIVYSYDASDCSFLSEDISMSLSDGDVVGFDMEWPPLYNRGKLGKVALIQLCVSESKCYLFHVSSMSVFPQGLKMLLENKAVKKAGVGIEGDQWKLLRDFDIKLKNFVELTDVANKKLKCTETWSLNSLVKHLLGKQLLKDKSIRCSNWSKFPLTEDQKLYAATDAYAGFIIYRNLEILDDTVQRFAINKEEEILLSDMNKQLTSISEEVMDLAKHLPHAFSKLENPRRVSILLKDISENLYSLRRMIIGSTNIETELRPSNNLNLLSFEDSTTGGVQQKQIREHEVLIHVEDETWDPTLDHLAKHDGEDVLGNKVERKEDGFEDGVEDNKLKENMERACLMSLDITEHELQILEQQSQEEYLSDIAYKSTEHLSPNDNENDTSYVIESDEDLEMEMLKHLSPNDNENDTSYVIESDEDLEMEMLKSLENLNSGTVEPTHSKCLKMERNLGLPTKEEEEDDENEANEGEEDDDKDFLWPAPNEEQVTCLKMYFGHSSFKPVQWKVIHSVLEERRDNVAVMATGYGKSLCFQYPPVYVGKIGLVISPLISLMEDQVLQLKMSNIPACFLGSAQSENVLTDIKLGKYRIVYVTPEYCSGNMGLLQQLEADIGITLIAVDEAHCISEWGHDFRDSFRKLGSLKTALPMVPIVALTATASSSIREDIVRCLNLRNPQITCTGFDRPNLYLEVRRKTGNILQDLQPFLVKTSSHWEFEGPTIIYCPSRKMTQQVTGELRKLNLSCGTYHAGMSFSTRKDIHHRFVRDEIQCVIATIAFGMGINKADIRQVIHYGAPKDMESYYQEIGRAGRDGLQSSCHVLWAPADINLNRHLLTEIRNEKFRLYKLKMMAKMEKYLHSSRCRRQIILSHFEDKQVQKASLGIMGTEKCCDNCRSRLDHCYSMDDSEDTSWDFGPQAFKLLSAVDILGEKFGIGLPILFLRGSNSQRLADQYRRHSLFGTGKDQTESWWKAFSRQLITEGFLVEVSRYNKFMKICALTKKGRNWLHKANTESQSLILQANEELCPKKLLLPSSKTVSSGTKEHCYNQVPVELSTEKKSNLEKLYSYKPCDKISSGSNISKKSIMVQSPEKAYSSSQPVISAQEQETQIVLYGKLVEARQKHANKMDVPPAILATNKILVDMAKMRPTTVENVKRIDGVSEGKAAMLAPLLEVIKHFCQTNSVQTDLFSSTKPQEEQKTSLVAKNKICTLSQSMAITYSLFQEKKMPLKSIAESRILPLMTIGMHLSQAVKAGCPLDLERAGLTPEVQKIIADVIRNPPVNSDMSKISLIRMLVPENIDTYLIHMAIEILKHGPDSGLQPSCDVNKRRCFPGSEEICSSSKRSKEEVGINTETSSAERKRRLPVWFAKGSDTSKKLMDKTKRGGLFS

The compounds below were run against Bifunctional 3'-5' exonuclease/ATP-dependent helicase WRN (Homo sapiens) (UniProt Q14191) (assay: qHTS for Inhibitors of WRN Helicase). Conditions: WRN helicase unwinding, fluorescent forked duplex, kinetic; activity change, negative = inhibition: at 114 µM (top of the series) unless noted.
Summary of the method: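 Screening of the MLSMR collection measured strand separation of a quenched forked DNA duplex (100 nM) by 20 nM WRN with 2 mM ATP, all final. Compounds were preincubated with enzyme 15 min at room temperature.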
% is set by controls: 0 for no effect and ±100 for the full control effect; potency is the fitted concentration of half-maximal effect.
Note: nearly all actives have a fitted effect of over 55% in size.

Structure (SMILES) | activity change, negative = inhibition | Potency
Cn1c(-[n+]2c(-c3ccccc3)cc(-c3ccccc3)cc2-c2ccccc2)nc2cc([N+](=O)[O-])ccc21 | inactive: 8% | 
COc1ccccc1-n1ccnc(SCC(=O)NCc2ccccc2)c1=O |  | inconclusive: 44.7 µM [inhibitor, partial curve]
Cn1nc(-c2ccccc2)c2cc(C(=O)O)sc21 |  | inconclusive: 44.7 µM [inhibitor, partial curve]
O=C(CCCOc1ccc(Cl)cc1Cl)Nc1ccncc1 | inactive: -15.2% | 
NC(=S)N/N=C/c1coc2ccc(F)cc2c1=O |  | inconclusive: 3.55 µM [inhibitor, full curve, poor fit]
CN(CCC1CCOCC1)C(=O)CC1C(=O)NCCN1Cc1c(F)cccc1Cl (stereo unspecified) | inactive: -7.17% | 
Cc1cc(NC(=O)CSc2nc(-c3cccnc3)ccc2C#N)no1 | inactive: 7.57% | 
COc1cc(C(Nc2ccccn2)c2ccc3ccc(C)nc3c2O)cc(OC)c1O (stereo unspecified) |  | active: 31.6 µM
CCOC(=O)c1nn(-c2ccccc2C)c(=O)c2c(N)scc12 |  | inconclusive: 79.4 µM [inhibitor, partial curve]
O=C(NCc1cccnc1)c1nc(-c2ccccc2)n(-c2ccccc2)n1 |  | inconclusive: 31.6 µM [inhibitor, full curve, poor fit]
O=c1cc2c(=O)oc3cc(O)c(O)oc3c2c(O)c1O |  | inconclusive: 3.16 µM [inhibitor, full curve]
CCOc1ccc(C(=O)OCC(=O)NCc2ccco2)cc1OCC |  | inconclusive: 50.1 µM [inhibitor, partial curve]
CCC(=O)Nc1ccc(C2=Nn3c(nnc3C(C)C)SC2)cc1 | inactive: 1.68% | 
C#CCOCCOCCOCCNc1nc(N2CCN(C(=O)[C@H](CCCCN)n3cc([C@@H](N)C(C)CC)nn3)CC2)nc(N2CCN(C(=O)[C@H](CCCCN)n3cc([C@@H](N)CC(C)C)nn3)CC2)n1 (stereo partly specified) |  | inconclusive: 35.5 µM [inhibitor, partial curve]
COC(=O)c1ccc(CNc2ccc(C(C)=O)cc2)cc1 | inactive: 3.75% | 
COc1ccc2oc(C(=O)Nc3ccc(N4CCOCC4)cc3)c(C)c2c1 |  | inconclusive: 50.1 µM [inhibitor, partial curve]
O=C(NCc1ccco1)c1cccc(-c2cncc3nccn23)c1 | inactive: -3.95% | 
COc1cc(OC)nc(-n2ncc(Br)c(Br)c2=O)n1 |  | inconclusive: 50.1 µM [inhibitor, partial curve]
O=C(Nc1ccc2c(c1)C(=O)NC2=O)c1cccc(C(F)(F)F)c1 | inactive: -12% | 
NC(=O)CSc1cn(CCNC(=O)c2cccs2)c2ccccc12 |  | inconclusive: 8.91 µM [inhibitor, partial curve]
O=C(COC(=O)Cc1ccccc1[N+](=O)[O-])Nc1nnc(-c2ccccc2)o1 |  | inconclusive: 79.4 µM [inhibitor, partial curve]
CC(C)NC(=S)NNc1nc2ccccc2s1 |  | inconclusive: 56.2 µM [inhibitor, partial curve]
CC(C)Cn1c(SCC(=O)Nc2ccc(Cl)cc2F)nc(O)cc1=O |  | inconclusive: 22.4 µM [inhibitor, full curve, poor fit]

Structure (SMILES) | activity change, negative = inhibition | Potency
CCOc1cccc(/C=N/N2C(=O)CSC2=S)c1O |  | inconclusive: 31.6 µM [inhibitor, full curve, poor fit]
S=c1[nH]c2cnc(Cl)nc2[nH]1 | inconclusive: -36.9% [inhibitor] | 
COc1cccc(C(=O)Nc2ccc(S(=O)(=O)Nc3nccc(C)n3)cc2)c1 |  | inconclusive: 39.8 µM [inhibitor, single point]
COC(=O)c1ccc(CNC(=O)C2CCC(=O)N(CCN3CCOCC3)C2)cc1 (stereo unspecified) | inactive: -34.2% | 
COc1ccc(OC)c(NC(=O)CSC2=C(C#N)C(c3ccco3)C3=C(CCCC3=O)N2)c1 (stereo unspecified) | inactive: -14% | 
O=c1cc(CN2CCN(S(=O)(=O)c3cccc(Cl)c3)CC2)c2ccc(O)cc2o1 | inactive: -2.7% [at 11.6 µM] | 
C=CCNC(=O)[C@@H]1CSC2c3ccc(OC)c(OC)c3C(=O)N21 (stereo partly specified) | inactive: -8.03% | 
CCOC(=O)Cc1csc(N/C(=N/S(=O)(=O)c2cc(Br)ccc2OCC)c2ccccc2)n1 |  | inconclusive: 39.8 µM [inhibitor, single point]
Cc1cc(C)cc(N2CC(O)=C(c3nc4ccccc4c(=O)[nH]3)C2=N)c1 |  | active: 50.1 µM
O=C(Oc1ccccc1)c1cc(O)c(O)c(O)c1 |  | inconclusive: 11.2 µM [inhibitor, full curve]
O=C(Nc1ccc(Br)cc1)c1csc(-c2ccncc2)n1 |  | inconclusive: 70.8 µM [inhibitor, single point]
N=C1/C(=C\c2ccc(OC(=O)c3ccccc3)cc2)C(=O)N=C2SC(N3CCOCC3)=NN12 | inactive: -4.47% [at 11.6 µM] | 
COc1ccc2c(c1)Cc1sc(NC(=O)c3cccnc3)nc1-2 | inactive: 2.33% [at 57.1 µM] | 
CCOC(=O)/C=C/C(=O)OCC(=O)Nc1cccc(Br)c1 |  | inconclusive: 79.4 µM [inhibitor, single point]
c1coc(-c2nc(-c3ccco3)c(-c3ccco3)nc2-c2ccco2)c1 |  | active: 20 µM
NNc1nc2c(Cl)c(Cl)ccc2s1 |  | inconclusive: 10 µM [inhibitor, partial curve]
O=S(=O)(N=C(NS(=O)(=O)c1ccc(Cl)cc1)c1ccccc1)c1ccc(Cl)cc1 |  | inconclusive: 39.8 µM [inhibitor, full curve, poor fit]
CCCn1c(SCC(=O)NC(=O)NCc2ccccc2)n[nH]c1=O | inactive: -0.92% | 
O=C(c1cc(-c2ccco2)nn1-c1cccc(Cl)c1)N1CCCCC1 |  | active: 56.2 µM
CC(=O)c1ccc(NC(=S)N2CCN(CCN3C(=O)c4cccc5cccc(c45)C3=O)CC2)cc1 |  | inconclusive: 31.6 µM [inhibitor, single point]
Cn1ccc(=S)c2ccccc21 |  | inconclusive: 39.8 µM [inhibitor, single point]
C=CCN1C(=O)/C(=C/c2ccc(O)cc2)S/C1=N/c1nccs1 | inactive: 0.308% | 
O=C1CC[C@@H](CN(Cc2ccccn2)Cc2nc(Cc3ccccc3)no2)N1 |  | inconclusive: 70.8 µM [inhibitor, single point]

Filtered by structure, the compounds so far containing a Cl atom (8)
Structure (SMILES) | activity change, negative = inhibition | Potency
O=C(CCCOc1ccc(Cl)cc1Cl)Nc1ccncc1 | inactive: -15.2% | 
CN(CCC1CCOCC1)C(=O)CC1C(=O)NCCN1Cc1c(F)cccc1Cl (stereo unspecified) | inactive: -7.17% | 
CC(C)Cn1c(SCC(=O)Nc2ccc(Cl)cc2F)nc(O)cc1=O |  | inconclusive: 22.4 µM [inhibitor, full curve, poor fit]
S=c1[nH]c2cnc(Cl)nc2[nH]1 | inconclusive: -36.9% [inhibitor] | 
O=c1cc(CN2CCN(S(=O)(=O)c3cccc(Cl)c3)CC2)c2ccc(O)cc2o1 | inactive: -2.7% [at 11.6 µM] | 
NNc1nc2c(Cl)c(Cl)ccc2s1 |  | inconclusive: 10 µM [inhibitor, partial curve]
O=S(=O)(N=C(NS(=O)(=O)c1ccc(Cl)cc1)c1ccccc1)c1ccc(Cl)cc1 |  | inconclusive: 39.8 µM [inhibitor, full curve, poor fit]
O=C(c1cc(-c2ccco2)nn1-c1cccc(Cl)c1)N1CCCCC1 |  | active: 56.2 µM
